Record: PubChem BioAssay AID743448 (Peter MacCallum Cancer Centre, 2014)

- Aim: 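Test whether knock-downs sensitising to vorinostat hold across several colon lines but not etoposide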 (follow-up of hits)
- System: four human colon cancer cell lines: HCT116-VR (vorinostat-resistant HCT116 derivative), SW480, SW620 and LIM1215
- Reagents: siRNA pool against human genes, 40 nM siRNA pool
- Duration: drug added two days after transfection, read one day later
- Challenge: vorinostat 2.5 µM on one half of each plate, etoposide 5 µM on the other half
- Measured: 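Caspase 3/7 activity by luminescence and live-cell viability by fluorescence, each given as a ratio to mock-transfected wells and as a robust z-score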
- Direction: caspase ratio to mock: higher = more caspase activity than mock; viability ratio to mock: higher = more live cells than mock
- Call rule: 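a row is a hit if caspase relative to mock is 1.6 or above or viability relative to mock is 0.75 or below; wells dying heavily without drug are not called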
- Calls: active = caspase or viability hit in this panel; inactive = no change, or unhealthy well
In all, the deposit lists 106 reagents; below is an unselected part. 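Calls are per line and drug panel including etoposide, not vorinostat-specific; gene picks needed hits in two or more extra lines with vorinostat versus etoposide.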 Entries without a mark were called inactive. Further read-outs or replicates are left out here.

| gene | cell line and drug panel | caspase ratio to mock | viability ratio to mock |
| --- | --- | --- | --- |
| CCNK (cyclin K) | LIM1215 cells with etoposide | 1.86 (active) | 0.78 |
| CCNK (cyclin K) | LIM1215 cells with vorinostat | 2.09 (active) | 1.07 |
| CCNK (cyclin K) | SW480 cells with etoposide | 4.88 (active) | 0.68 |
| CCNK (cyclin K) | SW480 cells with vorinostat | 2.29 (active) | 0.88 |
| CCNK (cyclin K) | SW620 cells with etoposide | 1.29 | 0.76 |
| CCNK (cyclin K) | SW620 cells with vorinostat | 1.6 (active) | 0.94 |
| CCNK (cyclin K) | vorinostat-resistant HCT116 cells with etoposide | 1.15 | 0.86 |
| CCNK (cyclin K) | vorinostat-resistant HCT116 cells with vorinostat | 2.38 (active) | 1 |
| PNN (pinin, desmosome associated protein) | LIM1215 cells with etoposide | 2.96 (active) | 0.95 |
| PNN (pinin, desmosome associated protein) | LIM1215 cells with vorinostat | 2.62 (active) | 0.86 |
| PNN (pinin, desmosome associated protein) | SW480 cells with etoposide | 3.63 (active) | 0.86 |
| PNN (pinin, desmosome associated protein) | SW480 cells with vorinostat | 1.73 (active) | 0.81 |
| PNN (pinin, desmosome associated protein) | SW620 cells with etoposide | 1.58 | 0.86 |
| PNN (pinin, desmosome associated protein) | SW620 cells with vorinostat | 2.18 (active) | 0.82 |
| PNN (pinin, desmosome associated protein) | vorinostat-resistant HCT116 cells with etoposide | 1.86 (active) | 0.84 |
| PNN (pinin, desmosome associated protein) | vorinostat-resistant HCT116 cells with vorinostat | 3.08 (active) | 0.84 |
| VAX1 (ventral anterior homeobox 1) | LIM1215 cells with etoposide | 1.91 (active) | 0.92 |
| VAX1 (ventral anterior homeobox 1) | LIM1215 cells with vorinostat | 1.52 | 0.87 |
| VAX1 (ventral anterior homeobox 1) | SW480 cells with etoposide | 1.9 (active) | 0.97 |
| VAX1 (ventral anterior homeobox 1) | SW480 cells with vorinostat | 2.22 (active) | 0.9 |
| VAX1 (ventral anterior homeobox 1) | SW620 cells with etoposide | 1.01 | 0.96 |
| VAX1 (ventral anterior homeobox 1) | SW620 cells with vorinostat | 1.3 | 0.84 |
| VAX1 (ventral anterior homeobox 1) | vorinostat-resistant HCT116 cells with etoposide | 1.29 | 0.99 |
| VAX1 (ventral anterior homeobox 1) | vorinostat-resistant HCT116 cells with vorinostat | 2.04 (active) | 0.99 |

Continued (4 carried over from the part before).
| gene | cell line and drug panel | caspase ratio to mock | viability ratio to mock |
| --- | --- | --- | --- |
| VAX1 (ventral anterior homeobox 1) | SW620 cells with etoposide | 1.01 | 0.96 |
| VAX1 (ventral anterior homeobox 1) | SW620 cells with vorinostat | 1.3 | 0.84 |
| VAX1 (ventral anterior homeobox 1) | vorinostat-resistant HCT116 cells with etoposide | 1.29 | 0.99 |
| VAX1 (ventral anterior homeobox 1) | vorinostat-resistant HCT116 cells with vorinostat | 2.04 (active) | 0.99 |
| MICALL2 (MICAL like 2) | LIM1215 cells with etoposide | 3.46 (active) | 1.15 |
| MICALL2 (MICAL like 2) | LIM1215 cells with vorinostat | 3.52 (active) | 1.12 |
| MICALL2 (MICAL like 2) | SW480 cells with etoposide | 3.73 (active) | 1.08 |
| MICALL2 (MICAL like 2) | SW480 cells with vorinostat | 2.84 (active) | 1.19 |
| MICALL2 (MICAL like 2) | SW620 cells with etoposide | 2.26 (active) | 1 |
| MICALL2 (MICAL like 2) | SW620 cells with vorinostat | 1.97 (active) | 1.06 |
| MICALL2 (MICAL like 2) | vorinostat-resistant HCT116 cells with etoposide | 3.36 (active) | 1.14 |
| MICALL2 (MICAL like 2) | vorinostat-resistant HCT116 cells with vorinostat | 2.94 (active) | 1.15 |
| NUP205 (nucleoporin 205) | LIM1215 cells with etoposide | 4.88 | 0.69 |
| NUP205 (nucleoporin 205) | LIM1215 cells with vorinostat | 3.53 (active) | 0.55 |
| NUP205 (nucleoporin 205) | SW480 cells with etoposide | 2.59 (active) | 0.64 |
| NUP205 (nucleoporin 205) | SW480 cells with vorinostat | 1.22 (active) | 0.6 |
| NUP205 (nucleoporin 205) | SW620 cells with etoposide | 1.5 (active) | 0.75 |
| NUP205 (nucleoporin 205) | SW620 cells with vorinostat | 1.16 (active) | 0.67 |
| NUP205 (nucleoporin 205) | vorinostat-resistant HCT116 cells with etoposide | 3.13 (active) | 0.58 |
| NUP205 (nucleoporin 205) | vorinostat-resistant HCT116 cells with vorinostat | 2.26 (active) | 0.54 |
| EIF3I (eukaryotic translation initiation factor 3 subunit I) | LIM1215 cells with etoposide | 1.85 (active) | 0.65 |
| EIF3I (eukaryotic translation initiation factor 3 subunit I) | LIM1215 cells with vorinostat | 1.9 (active) | 0.69 |
| EIF3I (eukaryotic translation initiation factor 3 subunit I) | SW480 cells with etoposide | 3.16 (active) | 0.58 |
| EIF3I (eukaryotic translation initiation factor 3 subunit I) | SW480 cells with vorinostat | 1.39 | 0.51 |
| EIF3I (eukaryotic translation initiation factor 3 subunit I) | SW620 cells with etoposide | 0.48 (active) | 0.5 |
| EIF3I (eukaryotic translation initiation factor 3 subunit I) | SW620 cells with vorinostat | 0.72 (active) | 0.72 |
| EIF3I (eukaryotic translation initiation factor 3 subunit I) | vorinostat-resistant HCT116 cells with etoposide | 0.84 (active) | 0.68 |
| EIF3I (eukaryotic translation initiation factor 3 subunit I) | vorinostat-resistant HCT116 cells with vorinostat | 0.88 (active) | 0.64 |
| DNTTIP2 (deoxynucleotidyltransferase terminal interacting protein 2) | LIM1215 cells with etoposide | 0.98 | 0.84 |
| DNTTIP2 (deoxynucleotidyltransferase terminal interacting protein 2) | LIM1215 cells with vorinostat | 1.37 | 1 |
| DNTTIP2 (deoxynucleotidyltransferase terminal interacting protein 2) | SW480 cells with etoposide | 0.72 | 0.84 |
| DNTTIP2 (deoxynucleotidyltransferase terminal interacting protein 2) | SW480 cells with vorinostat | 1.14 | 1.06 |
| DNTTIP2 (deoxynucleotidyltransferase terminal interacting protein 2) | SW620 cells with etoposide | 0.7 | 0.84 |
| DNTTIP2 (deoxynucleotidyltransferase terminal interacting protein 2) | SW620 cells with vorinostat | 0.98 | 0.99 |
| DNTTIP2 (deoxynucleotidyltransferase terminal interacting protein 2) | vorinostat-resistant HCT116 cells with etoposide | 0.78 (active) | 0.73 |
| DNTTIP2 (deoxynucleotidyltransferase terminal interacting protein 2) | vorinostat-resistant HCT116 cells with vorinostat | 0.88 | 0.83 |
